# Assay results: the supplement of paper PMC8728848
# This is one part of the list.
# B1: PX14351B-bth-512-36-512 (Bacteroides thetaiotaomicron) (protein)
# chain: ASETQQWKTLEDTRSALMGVYGLTRAALADNNTHWICGDLRKGDFTVYKRSDLQAVSDNELNKPYDLLKKVSNWRRFYAVINAASVFMEKAPRTVELDRSYSEQNLKYDIAQVRALRAFAYFYMVRIWGDVPLVTYSYDNGTFPSMPRTDAQTVLSYAKAELLTAIEDLPYQYGTQTNLYYGSYGAQWQGKLFNKLSAYSVLAHICAWQGNYAEAETYSAFIIDHASEINAKYTSIADLTSETGLFYSNASVKGSRILGFNFAHNDNEATQSGHLEQLTLAYPLVQKSYPEIYISKDSLFSIFTNFDDLRFGIIDTIKYSSYYVQNLNEETPVFSKIKIIQDGSAKDNDFGVFGSSIVFTRLEDITLLRAEALCALNRSTEAVSYLNMIRTNRGLREVSFKKDFGNNRESLIAEIFEERRRELMGEGWRWYDLVRRQKLMKDNEAFLRLISSGGIYWPVSEDIITANSQIEQNEFWK
# Columns and labels:
# Assay in all cases: glycan array binding signal (z-score within array); higher = stronger binding
# Conditions in all cases: glycan notation: IUPAC condensed, linker removed
# [1] = biological target: Neu5Ac(a2-6)Gal(b1-4)GlcNAc(b1-3)GalNAc
# Outline: (§1)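 From the Consortium for Functional Glycomics database, 3228 arrays were curated, keeping only those whose protein sequence was available. Binding is given as a within-array Z-score averaged across arrays sharing a protein sequence and across linkers. Negative Z-scores can be read as non-binding.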
# [2] = biological target: Neu5Ac(a2-6)Gal(b1-4)GlcNAc(b1-3)[Neu5Ac(a2-6)Gal(b1-4)GlcNAc(b1-6)]GalNAc
# Outline: as §1
# [3] = biological target: Neu5Ac(a2-6)Gal(b1-4)GlcNAc(b1-6)[Gal(b1-3)GlcNAc(b1-3)]Gal(b1-4)Glc
# Outline: as §1
# [4] = biological target: Neu5Ac(a2-6)Gal(b1-4)GlcNAc(b1-6)[Gal(b1-3)]GalNAc
# Outline: as §1
# Neu5Ac(a2-6)GalNAc = biological target: Neu5Ac(a2-6)GalNAc
# Outline: as §1
# [5] = biological target: Neu5Ac(a2-6)GalNAc(b1-4)GlcNAc
# Outline: as §1
# [6] = biological target: Neu5Ac(a2-6)GalNAc(b1-4)GlcNAc6S
# Outline: as §1
# [7] = biological target: Neu5Ac(a2-6)GlcNAc(b1-4)GlcNAc
# Outline: as §1
# [8] = biological target: Neu5Ac(a2-6)GlcNAc(b1-4)GlcNAc(b1-4)GlcNAc
# Outline: as §1
# Neu5Ac(a2-8)Neu5Ac = biological target: Neu5Ac(a2-8)Neu5Ac
# Outline: as §1
# [9] = biological target: Neu5Ac(a2-8)Neu5Ac(a2-3)Gal(b1-3)GalNAc(b1-4)[Neu5Ac(a2-3)]Gal(b1-4)Glc
# Outline: as §1
# [10] = biological target: Neu5Ac(a2-8)Neu5Ac(a2-3)Gal(b1-3)GalNAc(b1-4)[Neu5Ac(a2-8)Neu5Ac(a2-3)]Gal(b1-4)Glc
# Outline: as §1
# [11] = biological target: Neu5Ac(a2-8)Neu5Ac(a2-3)Gal(b1-4)Glc
# Outline: as §1
# [12] = biological target: Neu5Ac(a2-8)Neu5Ac(a2-3)Gal(b1-4)GlcNAc
# Outline: as §1
# [13] = biological target: Neu5Ac(a2-8)Neu5Ac(a2-3)[Gal(b1-3)GalNAc(b1-4)]Gal(b1-4)Glc
# Outline: as §1
# [14] = biological target: Neu5Ac(a2-8)Neu5Ac(a2-3)[GalNAc(b1-4)]Gal(b1-4)Glc
# Outline: as §1
# [15] = biological target: Neu5Ac(a2-8)Neu5Ac(a2-8)Neu5Ac
# Outline: as §1
# [16] = biological target: Neu5Ac(a2-8)Neu5Ac(a2-8)Neu5Ac(a2-3)Gal(b1-4)Glc
# Outline: as §1
# [17] = biological target: Neu5Ac(a2-8)Neu5Ac(a2-8)Neu5Ac(a2-3)[Gal(b1-3)GalNAc(b1-4)]Gal(b1-4)Glc
# Outline: as §1
# [18] = biological target: Neu5Ac(b2-6)Gal(b1-4)GlcNAc
# Outline: as §1
# Neu5Ac(b2-6)GalNAc = biological target: Neu5Ac(b2-6)GalNAc
# Outline: as §1
# [19] = biological target: Neu5Ac9Ac(a2-3)Gal(b1-3)GlcNAc
# Outline: as §1
# [20] = biological target: Neu5Ac9Ac(a2-3)Gal(b1-4)GlcNAc
# Outline: as §1
# [21] = biological target: Neu5Ac9Ac(a2-6)Gal(b1-4)GlcNAc
# Outline: as §1
# [22] = biological target: Neu5Gc(a2-3)Gal(b1-3)GlcNAc
# Outline: as §1
# [23] = biological target: Neu5Gc(a2-3)Gal(b1-3)[Fuc(a1-4)]GlcNAc
# Outline: as §1
# Neu5Gc(a2-3)Gal(b1-4)Glc = biological target: Neu5Gc(a2-3)Gal(b1-4)Glc
# Outline: as §1
# [24] = biological target: Neu5Gc(a2-3)Gal(b1-4)GlcNAc
# Outline: as §1
# [25] = biological target: Neu5Gc(a2-3)Gal(b1-4)GlcNAc(b1-3)Gal(b1-4)GlcNAc(b1-2)Man(a1-3)[Neu5Gc(a2-3)Gal(b1-4)GlcNAc(b1-3)Gal(b1-4)GlcNAc(b1-2)Man(a1-6)]Man(b1-4)GlcNAc(b1-4)GlcNAc
# Outline: as §1
# [26] = biological target: Neu5Gc(a2-3)Gal(b1-4)[Fuc(a1-3)]GlcNAc
# Outline: as §1
# [27] = biological target: Neu5Gc(a2-6)Gal(b1-4)GlcNAc
# Outline: as §1
# Neu5Gc(a2-6)GalNAc = biological target: Neu5Gc(a2-6)GalNAc
# Outline: as §1
# [28] = biological target: Neu5Gc(a2-8)Neu5Ac(a2-3)Gal(b1-4)GlcNAc
# Outline: as §1
# [29] = biological target: Neu5Gc(a2-8)Neu5Gc(a2-3)Gal(b1-4)GlcNAc
# Outline: as §1
# [30] = biological target: Neu5Gc(a2-8)Neu5Gc(a2-3)Gal(b1-4)GlcNAc(b1-3)Gal(b1-4)GlcNAc
# Outline: as §1
# [31] = biological target: Neu5Gc(a2-8)Neu5Gc(a2-6)Gal(b1-4)GlcNAc
# Outline: as §1
# [32] = biological target: Neu5Gc(b2-6)Gal(b1-4)GlcNAc
# Outline: as §1
binder,measurement,setting,value
B1,glycan array binding signal (z-score),[1],-0.255
same,glycan array binding signal (z-score),[2],-0.323
same,glycan array binding signal (z-score),[3],-0.387
same,glycan array binding signal (z-score),[4],-0.154
same,glycan array binding signal (z-score),Neu5Ac(a2-6)GalNAc,-0.287
same,glycan array binding signal (z-score),[5],-0.122
same,glycan array binding signal (z-score),[6],-0.15
same,glycan array binding signal (z-score),[7],-0.225
same,glycan array binding signal (z-score),[8],-0.026
same,glycan array binding signal (z-score),Neu5Ac(a2-8)Neu5Ac,-0.035
same,glycan array binding signal (z-score),[9],-0.191
same,glycan array binding signal (z-score),[10],-0.288
same,glycan array binding signal (z-score),[11],-0.329
same,glycan array binding signal (z-score),[12],-0.137
same,glycan array binding signal (z-score),[13],-0.099
same,glycan array binding signal (z-score),[14],0.094
same,glycan array binding signal (z-score),[15],-0.09
same,glycan array binding signal (z-score),[16],-0.22
same,glycan array binding signal (z-score),[17],-0.379
same,glycan array binding signal (z-score),[18],-0.258
same,glycan array binding signal (z-score),Neu5Ac(b2-6)GalNAc,-0.269
same,glycan array binding signal (z-score),[19],-0.073
same,glycan array binding signal (z-score),[20],-0.091
same,glycan array binding signal (z-score),[21],-0.276
same,glycan array binding signal (z-score),[22],-0.274
same,glycan array binding signal (z-score),[23],-0.197
same,glycan array binding signal (z-score),Neu5Gc(a2-3)Gal(b1-4)Glc,-0.321
same,glycan array binding signal (z-score),[24],-0.337
same,glycan array binding signal (z-score),[25],0.224
same,glycan array binding signal (z-score),[26],-0.301
same,glycan array binding signal (z-score),[27],-0.391
same,glycan array binding signal (z-score),Neu5Gc(a2-6)GalNAc,-0.086
same,glycan array binding signal (z-score),[28],-0.336
same,glycan array binding signal (z-score),[29],-0.302
same,glycan array binding signal (z-score),[30],-0.359
same,glycan array binding signal (z-score),[31],-0.296
same,glycan array binding signal (z-score),[32],0.662

# Some of the entries so far, as tab-separated lines.
binder	measurement	setting	value
B1	glycan array binding signal (z-score)	[27]	-0.391
same	glycan array binding signal (z-score)	Neu5Gc(a2-6)GalNAc	-0.086
